For at least one compound, name, drawing or mass did not settle the structure.
Target: human TLR7 (Homo sapiens (Human), UniProt Q9NYK1)
Assay: Reporter assay for TLR7 activity, HEK293 transiently transfected with wild type TLR7 and NFκB-luc
Assay type: cell-based
Conditions: lowest effective concentration; 48 h transfection

By UniProt entry, the sequences of proteins in these tests, tags left out. Residues count along the entry.
UniProt Q9NYK1, 27-1049: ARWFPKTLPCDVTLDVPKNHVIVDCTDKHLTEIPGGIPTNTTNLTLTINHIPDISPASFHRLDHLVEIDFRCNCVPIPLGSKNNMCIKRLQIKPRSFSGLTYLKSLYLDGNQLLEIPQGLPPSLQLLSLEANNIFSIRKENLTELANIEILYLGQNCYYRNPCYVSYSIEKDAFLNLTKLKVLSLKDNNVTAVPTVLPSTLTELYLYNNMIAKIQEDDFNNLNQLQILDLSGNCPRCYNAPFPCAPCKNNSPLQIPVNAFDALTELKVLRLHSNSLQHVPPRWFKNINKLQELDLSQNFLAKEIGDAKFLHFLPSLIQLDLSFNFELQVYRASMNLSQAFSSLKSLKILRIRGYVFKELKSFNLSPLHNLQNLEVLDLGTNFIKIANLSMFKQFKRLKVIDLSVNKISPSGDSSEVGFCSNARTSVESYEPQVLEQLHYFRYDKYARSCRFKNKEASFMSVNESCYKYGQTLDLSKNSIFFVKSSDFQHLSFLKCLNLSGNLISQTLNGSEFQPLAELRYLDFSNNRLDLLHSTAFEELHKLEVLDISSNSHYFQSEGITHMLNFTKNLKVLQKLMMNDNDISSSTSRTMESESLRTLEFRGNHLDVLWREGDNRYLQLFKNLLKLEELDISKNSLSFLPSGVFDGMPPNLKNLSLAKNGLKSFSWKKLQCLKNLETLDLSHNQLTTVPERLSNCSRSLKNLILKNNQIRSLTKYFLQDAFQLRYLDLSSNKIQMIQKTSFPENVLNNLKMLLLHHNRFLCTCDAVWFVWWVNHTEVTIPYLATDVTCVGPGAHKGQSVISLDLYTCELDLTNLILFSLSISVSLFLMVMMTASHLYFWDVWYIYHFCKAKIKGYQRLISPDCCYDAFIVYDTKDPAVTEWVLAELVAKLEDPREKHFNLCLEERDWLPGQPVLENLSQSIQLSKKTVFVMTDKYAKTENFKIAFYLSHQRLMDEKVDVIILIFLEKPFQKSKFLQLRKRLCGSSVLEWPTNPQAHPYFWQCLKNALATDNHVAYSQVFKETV

## Nc1nc(-c2ncc[nH]2)nc2c1[nH]c(=O)n2Cc1cccc(C(=O)N2CCCC2)c1 [Compound 55]
  TLR7-wt_LEC 48 h: 4.11 µM
